{"source": "PubChem BioAssay AID540256", "about": "(National Center for Advancing Translational Sciences (NCATS), 2011)", "note": "Out of some 300,000 compounds screened, about 3,700 (1.2%) were called active. The inconclusive results got no clear call from the source; some entries with a clear call stand among them for comparison. Calls follow the shape of the full dose curve; tested in HEK293 cells. Potencies beside an inconclusive call are fits to weak or partial responses and may not hold up. % is scaled to controls: 0 for no effect and ±100 for the full control effect; potency is read from the fitted curve at half-maximal effect.", "data": [{"assay": "qHTS for Inhibitors of binding or entry into cells for Lassa Virus; also: nearly all actives have a fitted effect of over 50% in size", "settings": "Lassa virus pseudotype entry inhibition, cell reporter; activity change, negative = inhibition: at 37.9 µM (top of the series) unless noted", "values": [{"smiles": "Cc1ccc(C(C(=O)NC2CCCCC2)N(CC2CCCO2)C(=O)CCCC(=O)Nc2ccccn2)cc1", "note": "(stereo not given)", "Potency": "inconclusive: 1.78 µM [inhibitor, partial curve, poor fit]"}, {"smiles": "c1cncc(C2CCCCN2Cc2ccc3c(c2)OCO3)c1", "note": "(stereo not given)", "Potency": "inconclusive: 0.092 µM [activator, full curve, poor fit]"}, {"smiles": "COc1ccccc1NCc1cccn1-c1nnc(N2CCOCC2)s1", "Potency": "inconclusive: 12.6 µM [activator, single point]"}, {"smiles": "NS(=O)(=O)c1cccc(NC(=O)c2ccc(NS(=O)(=O)c3cccc([N+](=O)[O-])c3)cc2)c1", "activity change, negative = inhibition": "inactive: 8.57%"}, {"smiles": "CNCc1ccccc1Sc1cccc2ccccc12", "Potency": "inconclusive: 29.1 µM [inhibitor, single point]"}, {"smiles": "O=C(COc1ccc(F)cc1)Nc1cc(S(=O)(=O)N2CCCCC2)ccc1N1CCCCC1", "Potency": "inconclusive: 7.94 µM [inhibitor, partial curve, poor fit]"}, {"smiles": "O=C(O)/C=C/C(=O)Nc1ccc(NC(=O)c2ccccc2)c(Cl)c1", "Potency": "inconclusive: 12.6 µM [activator, partial curve, poor fit]"}, {"smiles": "O=C(NCc1ccccn1)c1ccccc1Cl", "activity change, negative = inhibition": "inactive: 27%"}, {"smiles": "CCOC(=O)C1=C(CS(=O)(=O)c2ccc(C)cc2)NC(=O)NC1c1ccc(C(C)C)cc1", "note": "(stereo not given)", "Potency": "inconclusive: 11.2 µM [inhibitor, single point]"}, {"smiles": "CN(C(=O)c1ccc2c(c1)N(Cc1cccc(Cl)c1)C(=O)c1ccccc1S2=O)C1CCCCC1", "note": "(stereo not given)", "Potency": "inconclusive: 22.4 µM [inhibitor, partial curve, poor fit]"}, {"smiles": "Cn1c(CN2CCCC2)nc2cc(NC(=O)COc3ccccc3)ccc21", "Potency": "inconclusive: 15.8 µM [activator, partial curve, poor fit]"}, {"smiles": "Cc1cc(C)cc(N2C(=O)CSC23C(=O)N(CC(=O)NCCc2ccccc2)c2ccccc23)c1", "note": "(stereo not given)", "activity change, negative = inhibition": "inactive: -3.55% [at 46.1 µM]"}, {"smiles": "O=C(CCc1nnc(C2CCCCC2)o1)N1CCCCC1CCn1cccn1", "note": "(stereo not given)", "Potency": "inconclusive: 6.31 µM [inhibitor, single point]"}, {"smiles": "Cn1c(=O)c2c(nc(NCC3CCCO3)n2Cc2ccccc2)n(C)c1=O", "note": "(stereo not given)", "activity change, negative = inhibition": "inactive: -14.5%"}, {"smiles": "O=C(N/N=C/c1ccc(C(F)(F)F)cc1)c1ccc(O)cc1", "Potency": "inconclusive: 11.2 µM [inhibitor, single point]"}, {"smiles": "Cc1cc(C)c2c(CC(=O)Nc3ccc(Cl)cn3)coc2c1", "Potency": "inconclusive: 11.2 µM [inhibitor, partial curve]"}, {"smiles": "Cc1cc(C(=O)NC2CC(C)(C)Cc3c2cnn3-c2cccc(F)c2)n(C)n1", "note": "(stereo not given)", "Potency": "inconclusive: 6.31 µM [inhibitor, partial curve, poor fit]"}, {"smiles": "Cc1ccc(C(=O)Nc2nnc(-c3cccs3)s2)cc1C", "Potency": "inconclusive: 0.562 µM [activator, partial curve, poor fit]"}, {"smiles": "COc1ccc(NC(=O)C/C(C)=N/NC(=O)c2cnccn2)c(OC)c1", "activity change, negative = inhibition": "inactive: 10.2% [at 46.1 µM]"}, {"smiles": "Cc1nc2c(-c3ccccc3)c(C)nn2c(C)c1CCC(=O)NCc1ccccc1Cl", "activity change, negative = inhibition": "inactive: -18.6% [at 46.1 µM]"}, {"smiles": "COc1ccc(OC)c(S(=O)(=O)NCC(c2ccc3c(c2)OCO3)N2CCOCC2)c1", "note": "(stereo not given)", "Potency": "inconclusive: 3.55 µM [inhibitor, partial curve, poor fit]"}, {"smiles": "CCOc1ccc2nc(N3CCCC(C(=O)NCCCN4C(C)CCCC4C)C3)sc2c1", "note": "(stereo not given)", "activity change, negative = inhibition": "inactive: 16.3% [at 46.1 µM]"}, {"smiles": "CC(NC(=O)Cn1ncc(Cl)c(Cl)c1=O)C12CC3CC(CC(C3)C1)C2", "note": "(stereo not given)", "Potency": "inconclusive: 14.1 µM [inhibitor, partial curve, poor fit]"}, {"smiles": "Cc1csc(NC(=O)CSc2ccccc2F)n1", "Potency": "inconclusive: 7.08 µM [inhibitor, partial curve]"}, {"smiles": "O=C(Nc1cc2c(cc1C(=O)c1ccccc1Cl)OCCO2)c1ccc(Br)cc1", "activity change, negative = inhibition": "inactive: 1.89% [at 46.1 µM]"}, {"smiles": "COc1ccccc1NC(=O)c1cc(-c2ccc(C)o2)nc2ccccc12", "activity change, negative = inhibition": "inactive: 2.38%"}, {"smiles": "CC(C)Cn1cnc2c(SCc3ccccc3Cl)nc(N)nc21", "Potency": "inconclusive: 31.6 µM [inhibitor, single point]"}, {"smiles": "O=C(O)C1CCCN1c1nc(-c2ccc(Cl)c(Cl)c2)cc(C(F)(F)F)n1", "note": "(stereo not given)", "Potency": "inconclusive: 2 µM [inhibitor, full curve]"}, {"smiles": "O=C(NCCNc1cc(Cl)ccc1[N+](=O)[O-])c1ccco1", "Potency": "inconclusive: 1.26 µM [inhibitor, partial curve, poor fit]"}, {"smiles": "Cc1c(C)n(C)c2ccc(C(=O)Nc3cccc4ccccc34)cc12", "Potency": "inconclusive: 35.5 µM [inhibitor, single point]"}, {"smiles": "COc1cc(/C=N/N2C(C)CCCC2C)cc(Br)c1O", "note": "(stereo not given)", "Potency": "inconclusive: 0.116 µM [inhibitor, full curve, poor fit]"}, {"smiles": "O=C(CN1C2=NCCN2c2ccccc21)C12CC3CC(CC(C3)C1)C2", "Potency": "inconclusive: 35.5 µM [inhibitor, single point]"}, {"smiles": "CCCCC(c1nnnn1CC1CCCO1)N1CCN(c2cc(Cl)ccc2C)CC1", "note": "(stereo not given)", "Potency": "inconclusive: 35.5 µM [inhibitor, single point]"}, {"smiles": "CCCCn1c(N)c(N(CC(C)C)C(=O)CCS(=O)(=O)c2ccc(C)cc2)c(=O)[nH]c1=O", "Potency": "inconclusive: 5.62 µM [activator, single point]"}, {"smiles": "CC1Oc2ccccc2N(CC(=O)NCc2cccs2)C1=O", "note": "(stereo not given)", "Potency": "inconclusive: 20.6 µM [activator, single point]"}, {"smiles": "CCOc1c(Cl)cc(Cl)cc1CNCCSc1nnnn1C", "activity change, negative = inhibition": "inactive: -20.8% [at 46.1 µM]"}, {"smiles": "CCc1nc2ccccc2c(C(=O)OCC(=O)Nc2cccc(S(=O)(=O)N3CCOCC3)c2)c1C", "Potency": "inconclusive: 29.1 µM [inhibitor, single point]"}, {"smiles": "COc1ccccc1C(=O)NCCn1cc(SCC(=O)Nc2cc(C)on2)c2ccccc21", "Potency": "inconclusive: 16.4 µM [inhibitor, single point]"}, {"smiles": "CCC(=O)N1c2nc(-c3ccco3)nn2C2(CCCCC2)[C@@H]2CCCC[C@@H]21", "Potency": "inconclusive: 25.1 µM [activator, single point]"}, {"smiles": "COc1ccc2c(Cl)c(C(=O)NN)sc2c1", "Potency": "inconclusive: 16.4 µM [inhibitor, partial curve]"}, {"smiles": "Cc1ccccc1NC1(C#N)C(=O)Nc2ccccc21", "note": "(stereo not given)", "activity change, negative = inhibition": "inactive: -7.94%"}, {"smiles": "CCC(=O)Nc1ccc(S(=O)(=O)Nc2cccnc2)cc1", "activity change, negative = inhibition": "inactive: 11.6%"}, {"smiles": "O=C(Nc1nnc(CSCc2ccccc2F)s1)c1cccc([N+](=O)[O-])c1", "activity change, negative = inhibition": "inactive: 1.67%"}, {"smiles": "Cc1ccc(C(=O)C(C)Oc2cccc(NC(=O)c3ccco3)c2)cc1", "note": "(stereo not given)", "Potency": "inconclusive: 20 µM [inhibitor, single point]"}, {"smiles": "O=C(NN=C1CCCCCC1)NC1CCCCC1", "activity change, negative = inhibition": "inactive: 3.17%"}, {"smiles": "COc1ccc(CN(C(=O)/C=C/C(=O)c2ccc(OC)cc2O)C(C(=O)NC2CCCCC2)c2ccncc2)cc1", "note": "(stereo not given)", "Potency": "inconclusive: 14.6 µM [inhibitor, single point]"}, {"smiles": "Cc1ccc(-c2nnc(SCC(=O)N/N=C/c3ccc(C)s3)n2-c2ccc(C)cc2)cc1", "Potency": "inconclusive: 20 µM [inhibitor, single point]"}, {"smiles": "Cc1cc(C)c2sc(N(CCCN(C)C)C(=O)c3ccc(S(=O)(=O)N(C)C4CCCCC4)cc3)nc2c1", "Potency": "inconclusive: 35.5 µM [inhibitor, single point]"}, {"smiles": "CCN(Cc1ccccc1)C(=O)C(=O)c1cn(CC(=O)N2CCCC2)c2ccccc12", "Potency": "inconclusive: 14.1 µM [inhibitor, single point]"}, {"smiles": "O=C(/C=C/Nc1ccc(Nc2ccccc2)cc1)c1cccs1", "Potency": "inconclusive: 8.91 µM [inhibitor, partial curve, poor fit]"}, {"smiles": "Nc1c(C(=O)Nc2cccc(Br)c2)sc2nc3c(cc12)N1CCC3CC1", "activity change, negative = inhibition": "inactive: 7.33% [at 46.1 µM]"}, {"smiles": "CC(NC(=S)NCc1ccc(F)cc1)C12CC3CC(CC(C3)C1)C2", "note": "(stereo not given)", "Potency": "inconclusive: 7.94 µM [inhibitor, partial curve, poor fit]"}, {"smiles": "O=C1N(c2ccccc2)C2CS(=O)(=O)CC2N1c1ccc(Br)cc1", "note": "(stereo not given)", "activity change, negative = inhibition": "inactive: 5.91%"}, {"smiles": "CN(C)CCCNC(=O)c1cc(S(=O)(=O)N2CCOCC2)ccc1F", "Potency": "inconclusive: 7.94 µM [activator, partial curve]"}, {"smiles": "COc1ccc(-c2cn3nc(N4CCCC(C(=O)Nc5ccc(C)c(C)c5)C4)sc3n2)cc1", "note": "(stereo not given)", "activity change, negative = inhibition": "inactive: 0.228% [at 46.1 µM]"}, {"smiles": "COc1ccc(C(=O)Nc2nc3nccc(-c4ccccc4)n3n2)cc1", "Potency": "inconclusive: 7.08 µM [inhibitor, partial curve, poor fit]"}, {"smiles": "C/C(=N\\NC(=O)c1ccc(CN(C)S(=O)(=O)c2ccc(C)cc2)cc1)c1ccc(OC(F)F)cc1", "Potency": "inconclusive: 14.1 µM [inhibitor, partial curve, poor fit]"}, {"smiles": "O=C(O)C1Nc2c(O)cccc2C2C=CCC12", "note": "(stereo not given)", "Potency": "inconclusive: 35.5 µM [inhibitor, single point]"}, {"smiles": "COC(=O)CNC(c1ccccc1)c1cc(Br)ccc1NC(=O)CNC(=O)OCc1ccccc1", "note": "(stereo not given)", "Potency": "inconclusive: 35.5 µM [inhibitor, partial curve, poor fit]"}, {"smiles": "Nc1nc(OCc2ccccc2)c2[nH]cnc2n1", "Potency": "inconclusive: 6.51 µM [inhibitor, single point]"}, {"smiles": "CC(=O)c1sc(NCc2ccccc2)nc1C", "Potency": "inconclusive: 10 µM [activator, partial curve]"}, {"smiles": "Cc1cccc(N2CCN(C(c3ccccc3)c3nnnn3C(C)(C)C)CC2)c1C", "note": "(stereo not given)", "Potency": "active: 3.26 µM"}, {"smiles": "CC(C)(C)c1nnc(NC(=S)Nc2ccccc2)s1", "Potency": "inconclusive: 11.2 µM [inhibitor, partial curve, poor fit]"}, {"smiles": "CCOC(=O)c1cnc2ccc(C)cc2c1N(C)Cc1ccccc1", "Potency": "inconclusive: 35.5 µM [inhibitor, partial curve, poor fit]"}, {"smiles": "C(#CCN1CCOCC1)COCCCOC(c1ccccc1)c1ccccc1", "Potency": "inconclusive: 32.6 µM [inhibitor, single point]"}]}]}
